In the supplement of paper PMC3334620:
In all, about 33,000 sequences were measured (“E-score (-0.5 to 0.5)”: median about -0.0034, highest 2% from about 0.25 on). Some of the results follow.

molecular target: T1, Yap3 (UniProt P38749); assay: PBM E-score (8-mer binding enrichment) (E-score (-0.5 to 0.5)); higher = stronger / more preferred TF binding; conditions: protein concentration: 100 nM; construct: GST-full length
T1 sequence: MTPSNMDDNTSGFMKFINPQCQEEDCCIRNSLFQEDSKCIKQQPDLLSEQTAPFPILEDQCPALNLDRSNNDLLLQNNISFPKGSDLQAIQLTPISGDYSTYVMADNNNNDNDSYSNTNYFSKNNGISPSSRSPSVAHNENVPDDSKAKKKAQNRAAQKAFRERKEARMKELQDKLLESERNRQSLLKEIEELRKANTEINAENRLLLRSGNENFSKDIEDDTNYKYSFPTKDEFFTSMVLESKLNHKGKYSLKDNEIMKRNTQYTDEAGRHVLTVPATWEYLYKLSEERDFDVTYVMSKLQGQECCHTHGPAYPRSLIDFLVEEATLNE
How it was run: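 Yeast transcription factors carrying a GST tag, as full-length proteins or DNA-binding domains, were produced by PURExpress in vitro transcription/translation. About 100-200 nM protein was applied to universal all-10-mer Agilent arrays, double-stranded by primer extension on fresh or once-stripped slides. Bound protein was detected with fluorescent anti-GST, and scans were normalised with masliner. The Universal PBM Analysis Suite gave each ungapped eight-base word, pooled with its reverse complement, an E-score, a modified Wilcoxon-Mann-Whitney statistic.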

Sequence | PBM E-score
GCACCGGA | -0.205
CCAATACC | -0.0145
CTTATTTA | 0.11
TAGGCCGA | -0.212
AGACGGTC | -0.17
TGAGAGAA | 0.0805
CACGTACG | -0.109
CAACTCGC | 0.0689
CCCTCTAA | -0.222
ATAGCGAA | 0.194
GTCACAGA | 0.104
CAATAACG | 0.148
AACCCCTC | -0.185
ACCTTCCT | -0.194
CCGTAGAC | -0.134
CAGTTATA | 0.0741
TAGTACCA | 0.0794
CGCTCGGA | -0.0175
CCAAGTGG | -0.144
TATATTCA | 0.259
GTATTGCA | 0.0173
CCCGATAA | -0.0403
TCTGTGAA | 0.129
AACCAGCC | -0.187
AGATTCAC | -0.0506

Sequence | PBM E-score
ATCCAAAC | 0.0616
CGGCGCGC | 0.0571
AGTTCCAC | -0.0735
CAAAAAAA | 0.203
CATCAGCG | -0.102
ACGTGTTC | -0.0741
TACGCTAA | 0.177
TATATGGA | 0.108
GAGTATGC | 0.0326
CCTCCGTA | -0.0157
AGTCCTAG | -0.165
CATTCAAG | -0.0224
CTACTTAA | 0.00148
CATGTCGG | -0.167
CAGCGTAG | -0.031
AAGGACCG | -0.218
AGCGTCTC | -0.138
GGCTCACA | -0.0615
GACACGTA | 0.0699
CCTCCTGA | -0.115
GAATGGCC | -0.0883
CTCCGGTC | -0.224
CATCGAGC | 0.019
CAGTCGTC | -0.172
CAGCCGCG | -0.13

Reformatted: results already given.
Sequence	PBM E-score
CTACTTAA	0.00148
CCTCCTGA	-0.115

Additional records:

Sequence | PBM E-score
CCGGGCAG | -0.25
ATACAGTA | 0.1
AAAAATGG | 0.172
TCCATACA | 0.0188
CGTGGTAC | -0.179
ACCGTGAC | -0.0732
ACTTGACC | -0.1
CGGAGCCC | -0.285
AGAAGACA | 0.00673
AGGAGAGC | -0.293
CTATAGCA | 0.0881
AAGCGTTG | 0.00349
TATTTCCA | 0.00077
AATTTAGG | 0.194
ACGGCGAC | -0.128
AAAGAGAC | 0.0961
ATGCATCG | 0.0631
GAATGTTA | 0.154
AGTGTGAA | 0.183
AGCGTCCG | -0.168
GACAACTA | 0.139
ATCGTAGC | 0.0572
ACTCCGGC | -0.0211
GATGCTAA | 0.0345
AAGCATAA | 0.127

An excerpt of these results, as comma-separated lines.
Sequence,PBM E-score
AACCCCTC,-0.185
ACCTTCCT,-0.194
CCGTAGAC,-0.134
CAGTTATA,0.0741
TAGTACCA,0.0794
CGCTCGGA,-0.0175
CCAAGTGG,-0.144
TATATTCA,0.259
GTATTGCA,0.0173
CCCGATAA,-0.0403
TCTGTGAA,0.129
AACCAGCC,-0.187
AGATTCAC,-0.0506
ATCCAAAC,0.0616
CGGCGCGC,0.0571
AGTTCCAC,-0.0735
CAAAAAAA,0.203
CATCAGCG,-0.102
ACGTGTTC,-0.0741
TACGCTAA,0.177
TATATGGA,0.108
GAGTATGC,0.0326
CCTCCGTA,-0.0157
AGTCCTAG,-0.165
CATTCAAG,-0.0224
CTACTTAA,0.00148
CATGTCGG,-0.167
CAGCGTAG,-0.031
AAGGACCG,-0.218
AGCGTCTC,-0.138
GGCTCACA,-0.0615
GACACGTA,0.0699
CCTCCTGA,-0.115
GAATGGCC,-0.0883
CTCCGGTC,-0.224
CATCGAGC,0.019
CAGTCGTC,-0.172
CAGCCGCG,-0.13
CCGGGCAG,-0.25
ATACAGTA,0.1
AAAAATGG,0.172
TCCATACA,0.0188
CGTGGTAC,-0.179
ACCGTGAC,-0.0732
ACTTGACC,-0.1
CGGAGCCC,-0.285
AGAAGACA,0.00673
AGGAGAGC,-0.293
CTATAGCA,0.0881
AAGCGTTG,0.00349
TATTTCCA,0.00077
AATTTAGG,0.194
ACGGCGAC,-0.128
AAAGAGAC,0.0961

Later entries:

Sequence | PBM E-score
AGAGGCAT | -0.0393
AGACATAC | 0.0492
CGGATTTA | 0.0923
CCAGCAAC | 0.0144
TCCGAGGA | -0.0268
CCCGTCTC | -0.254
CCGGTCCG | -0.29
ATGAGATA | 0.0846
GGACTTAC | 0.0689
GATTGGCA | -0.0962
CGTAGGCC | -0.14
GCCCTCGA | -0.0443
AGCGTATC | -0.0352
ACGAGCCT | -0.141
ACCAGCAA | 0.13
CTACCCTC | -0.0893
AGCTAGAC | -0.142
GCGATCAA | 0.0161
GTCATGTA | 0.00979
GCACCCAA | -0.192
ATGGGTTG | 0.0295
CTAAGCAG | -0.205
TCAATCCA | 0.0716
ATTTCGGC | 0.0324
CCCTTTGC | -0.0908

Sequence | PBM E-score
AGCCAAGA | -0.0031
AGTGTTTA | 0.169
CAGCTGCC | -0.0739
ACATATAT | 0.123
ACGACGGC | -0.0705
CACTACGG | 0.0333
GTCAGTGA | -0.0524
TCCGATCA | 0.108
AGAGAAAA | 0.0508
GTATATAA | 0.217
ATTGGACG | 0.109
AGTGACGG | 0.0964
ACTTTGCC | -0.0297
CAATTCAA | 0.072
ACCTTAAT | 0.104
AATCGGGC | 0.0438
CAAGCATG | -0.058
CATTCGCG | 0.038
CGACGGGC | -0.0448
CTAACGGC | 0.00219
AGATAAAG | 0.174
AACTTAGC | -0.0179
ACAATCCA | 0.287
ATTTAAAT | 0.212
GGATTGCC | -0.116

Sequence | PBM E-score
ACACGAGC | -0.105
ATGACTCG | -0.0589
CCGCGATC | -0.0303
CTGGGACC | -0.279
GGCTTAGA | -0.192
AACTCCAG | -0.134
CATTCCAC | 0.0665
AACCATAG | -0.0373
ACTGTGAC | 0.215
GGCAAGCA | -0.186
CTGCTCAA | 0.061
GCAATGAA | 0.139
GTGATAGA | 0.0565
ATTTAAAG | 0.1
AATAAGGA | 0.0471
AGTTGGCA | -0.0258
ACTTCACT | 0.156
GCGGAAGC | -0.179
TCACGGCA | 0.0474
CCGAGGCG | -0.0459
CAATGTCA | 0.119
ACTATCGG | 0.025
CTTCCGTA | 0.176
AAGGTCAT | -0.047
CTGTAACA | -0.0647

Sequence | PBM E-score
AAAAAAGT | 0.174
CGGTGCCC | -0.264
AATTGAGT | 0.0864
AACCCCGG | -0.158
ATGGATTC | -0.0182
ACCCCTGA | -0.0867
ACTCTGTG | -0.123
CCACATCA | 0.00532
TAACACGA | 0.231
AGTCCTAA | -0.0258
ATCCAAGG | -0.0203
GGATGACA | 0.207
CTTAGTTA | 0.179
ACAGTCGG | -0.0319
AGCAAAAA | 0.122
ACACACGT | 0.0617
TGGACTAA | -0.00372
CAAGAGAA | 0.0376
ACGACGTC | 0.037
CGTACTGA | 0.0487
GTAACACA | 0.198
CGGACTGA | -0.0704
